The target of this assay is alpha subunit of the IL-15 receptor (IL-15Rα) (UniProt Q13261). Briefly: ELISA-type test, IL-15Rα immobilized on the plate. In general terms: In an ELISA, binding on a coated surface is turned into a signal by an enzyme label.

The chains behind the UniProt entries cited, without tags or fusion partners. Residues count along the entry.
UniProt Q13261, residues 31-205: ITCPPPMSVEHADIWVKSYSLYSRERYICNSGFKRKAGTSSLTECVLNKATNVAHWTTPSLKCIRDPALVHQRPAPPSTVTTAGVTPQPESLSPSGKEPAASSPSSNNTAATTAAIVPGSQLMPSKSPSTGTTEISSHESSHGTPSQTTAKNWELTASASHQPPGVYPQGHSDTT

These are yes or no findings as the source states them, for the method shown. Some binding calls cover weakened binding; strength is not graded here.

In the case of KVTAMKCFLL [Peptide 1], the binding entry is “binds”.

The record behind these values is US20240228568A1.
